Measurements taken from paper doi:10.1101/150805.

Target: LUC7A-YFP (LETHAL UNLESS CBC 7 A, AthLUC7A) (Arabidopsis thaliana)
Test: co-IP

Row | Binder | binding
1 | SERRATE (SE) (protein, UniProt Q9ZVD0 1-720) MADVNLPPSDSVDNRLPEKSTSSSPPPPPPSSSLPQQEQEQDQQQLPLRRERDSRERRDERDIERPPPNRRERDRSPLPPPRRDYKRRPSLSPPPPYRDRRHSPPQRRSPPQKRYRRDDNGYDGRRGSPRGGYGPPDRRFGYDHGGGYDREMGGRPGYGDERPHGRFMGRYQDWEGGRGGYGDASNSGNPQRDGLMSYKQFIQELEDDILPSEAERRYQEYKSEYITTQKRAFFNTHKEEDWLKNKYHPTNLLSVIERRNDLAQKVAKDFLLDLQSGTLDLGPAVTALNKSGRTSEPNSEDEAAGVGKRKRHGMGGAKENELLSAAPKAPSFTSDPKRILTDVEQTQALVRKLDSEKKIEENVLQGSETEKSGREKLHSGSTGPVVIIRGLTSVKGLEGVELLDTLVTYLWRVHGLDYYGKVETNEAKGLRHVRAEGKVSDAKGDENESKFDSHWQERLKGQDPLEVMAAKEKIDAAATEALDPHVRKIRDEKYGWKYGCGAKGCTKLFHAAEFVYKHLKLKHTELVTELTTKVREELYFQNYMNDPNAPGGQPATQQSGPRDRPIRRKPSMENRLRDDRGGRRERDGRANGNDRNDRSEDQQRGDNDGGNPGEVGYDAFGGQGGVHVPPFLSDINPPPMLMPVPGAGPLGPFVPAPPEVAMQMFRDPSGPNPPFEGSGRGGPAPFLLSPAFRQDPRRLRSYQDLDAPEEEVTVIDYRSL | binds
2 | ABH1/CBP80 (protein, UniProt Q9SIU2 1-848) MSNWKTLLLRIGEKGPEYGTSSDYKDHIETCFGVIRREIERSGDQVLPFLLQCAEQLPHKIPLYGTLIGLLNLENEDFVQKLVESVHANFQVALDSGNCNSIRILLRFMTSLLCSKVIQPASLIVVFETLLSSAATTVDEEKGNPSWQPQADFYVICILSSLPWGGSELAEQVPDEIERVLVGIQAYLSIRKNSSTSGLNFFHNGEFESSLAEKDFVEDLLDRIQSLASNGWKLESVPRPHLSFEAQLVAGKFHELRPIKCMEQPSPPSDHSRAYSGKQKHDALTRYPQRIRRLNIFPANKMEDVQPIDRFVVEEYLLDVLFYLNGCRKECASYMANLPVTFRYEYLMAETLFSQILLLPQPPFKTLYYTLVIMDLCKALPGAFPAVVAGAVRALFEKISDLDMESRTRLILWFSHHLSNFQFIWPWEEWAFVLDLPKWAPKRVFVQEILQREVRLSYWDKIKQSIENATALEELLPPKAGPNFMYSLEEGKEKTEEQQLSAELSRKVKEKQTARDMIVWIEETIYPVHGFEVTLTIVVQTLLDIGSKSFTHLVTVLERYGQVFSKLCPDNDKQVMLLSQVSTYWKNNVQMTAVAIDRMMGYRLVSNQAIVRWVFSPENVDQFHVSDQPWEILGNALNKTYNRISDLRKDISNITKNVLVAEKASANARVELEAAESKLSLVEGEPVLGENPAKMKRLKSTVEKTGEAELSLRESLEAKEALLNRALSETEVLLLLLFQSFLGVLKERLPDPTKVRSVQDLKSIGAEDDKPSAMDVDSENGNPKKSCEVGEREQWCLSTLGYLTAFTRQYASEIWPHMEKLESEVFSGEDVHPLFLQAISSALQFPLH | binds

No constants are given. Whether binding was seen depends on the method and setting. Binding seen in cells or lysates may run through a third protein. Binding calls can cover weak binding; strength is not graded here.
